Several values for one entry are separate records, joined by “and”; a condition that tells them apart may be missing. Equal values may be shown once. The campaign covered roughly 580,000 compounds. About 6,100 (1.1%) were called active. Inconclusive means that the source gave no clear call. Such entries were picked first, then a sample of the others. Calls follow the shape of the dose curve; as a rule, active = well fitted inhibition curve with a large enough effect; inconclusive = small, poorly fitted or top-dose-only effect, or another doubt; inactive = no such curve, though single readings can be large or run the other way. Potencies beside an inconclusive call are fits to weak or partial responses and may not hold up.
Target: Polyunsaturated fatty acid lipoxygenase ALOX12 (Homo sapiens) (UniProt P18054)
Assay: Primary qHTS assay for inhibitors of human arachidonate 12S-lipoxygenase (ALOX12): Round 2
Settings: purified 12hLO, xylenol orange hydroperoxide absorbance; series mostly up to 108 µM
How it was run: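 Purified human 12hLO at 150 nM in 25 mM Hepes, 0.01% Triton X-100, pH 7.0, preincubated 15 min at room temperature with compound. Reaction started with 40 uM arachidonic acid, 30 min at room temperature. Hydroperoxide measured by Fe-xylenol orange, 573/405 nm absorbance ratio.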
Potency is read from the fitted curve at half-maximal effect.

Chains of the proteins cited; added tags and fusions are not shown.
UniProt P18054, whole entry, looked up: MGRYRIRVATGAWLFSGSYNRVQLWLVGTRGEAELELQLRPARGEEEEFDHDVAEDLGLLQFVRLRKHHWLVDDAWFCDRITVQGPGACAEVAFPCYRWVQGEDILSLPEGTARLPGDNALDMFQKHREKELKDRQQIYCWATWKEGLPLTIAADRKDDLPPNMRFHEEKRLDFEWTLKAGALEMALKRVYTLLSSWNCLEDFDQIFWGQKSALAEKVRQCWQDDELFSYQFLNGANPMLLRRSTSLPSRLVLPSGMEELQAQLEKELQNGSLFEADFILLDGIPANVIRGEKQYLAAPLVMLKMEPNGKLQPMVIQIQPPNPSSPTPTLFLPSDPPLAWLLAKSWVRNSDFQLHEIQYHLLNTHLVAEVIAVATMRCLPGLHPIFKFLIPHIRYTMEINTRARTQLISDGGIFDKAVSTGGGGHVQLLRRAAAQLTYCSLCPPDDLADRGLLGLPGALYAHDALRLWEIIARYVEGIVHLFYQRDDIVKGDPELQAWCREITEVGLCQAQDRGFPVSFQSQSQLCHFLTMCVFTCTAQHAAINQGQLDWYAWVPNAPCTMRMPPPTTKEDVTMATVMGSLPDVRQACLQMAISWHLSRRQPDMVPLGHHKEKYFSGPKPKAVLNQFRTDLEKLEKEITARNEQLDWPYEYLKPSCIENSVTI

Row | SMILES | Potency
1 | COc1ccccc1-c1cncnc1N1CCN(C)CC1 | inconclusive: 44.7 µM [inhibitor, partial curve, poor fit]
2 | CC(C)n1cnnc1CC1CCCN(C(=O)COc2ccccc2)C1 (stereo unspecified) | inconclusive: 3.55 µM [inhibitor, full curve, poor fit]
3 | CCC1Nc2ncnc(N3CCN(c4ccccn4)CC3)c2N(Cc2ccc(Cl)cc2)C1=O (stereo unspecified) | inconclusive: 3.16 µM [inhibitor, full curve, poor fit]
4 | CC(C)CNC(=O)C(NC(=O)c1ccccc1Cl)C1CCN(C(=O)c2ccc(Cl)cc2)CC1 (stereo unspecified) | inactive
5 | Cc1ccsc1-c1[nH]nc2ncc(-c3cccc(CO)c3)nc12 | inconclusive: 39.8 µM [inhibitor, partial curve, poor fit]
6 | Oc1ccc(Nc2nc(-c3ccc(O)cc3)cs2)cc1 | inconclusive: 50.1 µM [inhibitor, partial curve, poor fit]
7 | NC(=O)C1Cc2ccccc2CN1 (stereo unspecified) | inconclusive: 20 µM [inhibitor, partial curve, poor fit]
8 | COc1ccc(-c2cc(C[C@H]3CNCC[C@H]3CC(=O)NCCN(C)C)no2)cc1 | inconclusive: 35.5 µM [inhibitor, single point]
9 | COCCCn1c(SCC(=O)NCc2ccco2)nc2sc3c(c2c1=O)CCC3 | inconclusive: 89.1 µM [inhibitor, partial curve, poor fit]
10 | CCCCC1Cc2[nH]c(=S)[nH]c(=O)c2C(c2cccc3ccccc23)O1 (stereo unspecified) | active: 12.6 µM
11 | O=c1[nH]oc2cc(Cl)ccc12 | inconclusive: 44.7 µM [inhibitor, partial curve, poor fit]
12 | CCOc1cccc(-c2cc(C(=O)Nc3ccon3)c3ccccc3n2)c1 | inactive
13 | Cc1cc(NC(=O)Cn2c(=O)c3c(ncn3CCC(C)C)n(Cc3ccccc3)c2=O)no1 | inconclusive: 100 µM [inhibitor, single point]
14 | Cc1c(C(=O)Nc2cccc(F)c2)sc2nc(-c3cc4ccccc4oc3=O)[nH]c(=O)c12 | inconclusive: 44.7 µM [inhibitor, partial curve, poor fit]
15 | COc1ccc(NC(=O)c2c(NCc3cccs3)sc3c2CCCCC3)cc1 | inconclusive: 44.7 µM [inhibitor, partial curve, poor fit]
16 | CCCc1ccc(-c2c(C)sc(N)c2C#N)cc1 | inconclusive: 44.7 µM [inhibitor, partial curve]
17 | N=c1sc2ccccc2n1-c1ccccc1 | inconclusive: 50.1 µM [inhibitor, partial curve, poor fit]
18 | C/C(=N\NC(=S)NCc1ccccc1)C1CCCCC1 | active: 39.8 µM
19 | CCOc1ccc(/C=N/NC(=S)Nc2c(C)cccc2C)cc1 | inconclusive: 39.8 µM [inhibitor, partial curve]
20 | CC(=O)Nc1ccc(Sc2ccnc3cc(Cl)ccc23)cc1 | inconclusive: 39.8 µM [inhibitor, partial curve, poor fit]
21 | COc1cc(CNCC2CCNCC2)ccc1OCc1ccccc1Cl | inconclusive: 44.7 µM [inhibitor, partial curve, poor fit]
22 | CCN(CC)CC(=O)c1c(N)n(Cc2ccccc2)c(=O)n(C)c1=O | inactive

Row | SMILES | Potency
23 | O=c1cc(CN(Cc2ccccc2)Cc2ccccc2)c2c(ccc3ccccc32)o1 | inconclusive: 31.6 µM [inhibitor, partial curve, poor fit]
24 | Nc1nc(N2CCN(Cc3ccc(Cl)cc3)CC2)c2[nH]cnc2n1 | inconclusive: 63.1 µM [inhibitor, single point]
25 | O=S(=O)(c1ccc(F)cc1)n1cc(Cl)cn1 | inconclusive: 12.6 µM [inhibitor, full curve, poor fit]
26 | O=C(c1ccccc1Br)N1CCC(c2nc3ccccc3s2)CC1 | inactive
27 | COc1cccc(OCCCn2c(-c3ccc(Cl)cc3)nc3ccccc3c2=O)c1 | inactive
28 | CCOc1cc(C(=S)N2CCOCC2)ccc1OS(=O)(=O)c1ccc(OC)cc1 | inactive
29 | Cc1c2c(nc3ccccc13)CCc1ccccc1-2 | inconclusive: 17.8 µM [inhibitor, full curve, poor fit]
30 | O=C(Nc1cccc(Cl)c1)C1CCN(c2nc3ccccc3nc2C(F)(F)F)CC1 | inactive
31 | Cc1ccc(NC(=S)NCC2(C)CC(NC(=S)Nc3ccc(C)cc3C)CC(C)(C)C2)c(C)c1 (stereo unspecified) | active: 7.08 µM
32 | CCCCCCCCN1C(=O)[C@@H](CC(=O)N2CCN(C(=O)C3CC3)CC2)C[C@@]2(C(=O)OC)C1=C[C@H](C1CCCC1)O[C@@H]2C | inconclusive: 100 µM [inhibitor, partial curve, poor fit]
33 | O=S(=O)(Nc1nc2ccccc2nc1Nc1ccc(F)cc1)c1cccs1 | inconclusive: 25.1 µM [inhibitor, full curve, poor fit]
34 | COc1ccccc1N(CC(=O)N1CCCC1)S(=O)(=O)c1cc([N+](=O)[O-])ccc1Cl | inconclusive: 31.6 µM [inhibitor, single point]
35 | COC(=O)c1cccc(N=Cc2cc(Cl)ccc2O)c1 | inconclusive: 50.1 µM [inhibitor, partial curve, poor fit]
36 | CSc1nc(-c2ccccc2)nn1S(=O)(=O)c1ccc(Cl)cc1 | inconclusive: 56.2 µM [inhibitor, partial curve, poor fit]
37 | CCN1c2cc(C(=O)Nc3ccc(F)cc3)ccc2C(=O)N2CCCC21 (stereo unspecified) | inactive
38 | COc1ccc(CN2C[C@@H](CO)O[C@@H](n3cnc4c(NCCO)ncnc43)C2)cc1 | inconclusive: 2.51 µM [inhibitor, full curve, poor fit]
39 | COc1ccc(-c2ccc(CCC(=O)O)n2C(C)C)cc1 | inconclusive: 39.8 µM [inhibitor, partial curve, poor fit]
40 | Cc1c(C#N)c(NC(=O)CSc2nnnn2C2CCCCC2)n(CC2CCCO2)c1C (stereo unspecified) | inconclusive: 50.1 µM [inhibitor, single point]
41 | Cc1ccc(Sc2c(CO)c(-c3ccccc3)nn2C)cc1 | inactive
42 | COc1ccc(NS(=O)(=O)c2ccc(NC(=O)c3ccccc3)cc2)nn1 | inactive
43 | COc1ccc(NC(=S)Nc2cccc3cnccc23)cc1 | inconclusive: 50.1 µM [inhibitor, partial curve, poor fit]
44 | COC(=O)c1cc2ccccn2c2c(C(=O)OC)c(C(=O)OC)cc1-2 | inconclusive: 0.447 µM [inhibitor, full curve, poor fit]

4 records drawn at random from the list so far, as already listed:
Row | SMILES | Potency
5 | Cc1ccsc1-c1[nH]nc2ncc(-c3cccc(CO)c3)nc12 | inconclusive: 39.8 µM [inhibitor, partial curve, poor fit]
15 | COc1ccc(NC(=O)c2c(NCc3cccs3)sc3c2CCCCC3)cc1 | inconclusive: 44.7 µM [inhibitor, partial curve, poor fit]
13 | Cc1cc(NC(=O)Cn2c(=O)c3c(ncn3CCC(C)C)n(Cc3ccccc3)c2=O)no1 | inconclusive: 100 µM [inhibitor, single point]
26 | O=C(c1ccccc1Br)N1CCC(c2nc3ccccc3s2)CC1 | inactive

The list continues:

Row | SMILES | Potency
45 | FC(F)(F)c1ccccc1-c1cc(N2CCNCC2)ncn1 | inconclusive: 17.8 µM [inhibitor, full curve, poor fit]
46 | CCC(CO)Oc1cc(NCc2ccccc2C(F)(F)F)c2ncn(C(C)C)c2c1 (stereo unspecified) | inconclusive: 89.1 µM [inhibitor, single point]
47 | CCOc1cccc(C2c3[nH]c4ccccc4c3CCN2C(=O)CSc2ccccc2)c1 (stereo unspecified) | inconclusive: 70.8 µM [inhibitor, partial curve, poor fit]
48 | N#Cc1ccc(C(=O)NCc2coc(-c3cccs3)n2)cc1 | inactive
49 | CNc1cc(NS(=O)(=O)c2ccc(N)cc2)nc(NC)n1 | inconclusive: 8.91 µM [inhibitor, full curve, poor fit] and inconclusive: 10 µM [inhibitor, full curve]
50 | CCOC(=O)CNC(=O)CSc1nc(-c2cccc(C)c2)ns1 | inconclusive: 44.7 µM [inhibitor, partial curve, poor fit]
51 | CCN(Cc1ccccc1)c1cc2c(c3c1ccn3C)C1CCC2O1 (stereo unspecified) | inconclusive: 112 µM [inhibitor, single point]
52 | Cc1ccccc1Nc1c(-c2ccc(Cl)cc2)nc2c(C)cccn12 | inactive
53 | CCc1ccc(S(=O)(=O)NC(=S)Nc2ccccc2)cc1 | active: 44.7 µM
54 | COc1ccc(C(=O)N2CCn3c(nnc3C3CCNCC3)C2)cc1 | inconclusive: 7.94 µM [inhibitor, full curve]
55 | Fc1ccc(C2NC(=S)NC3=C2N2CCC3CC2)cc1 (stereo unspecified) | inactive
56 | N#Cc1cccc(NC(=O)Cc2ccc3c(c2)CCC3)c1 | inconclusive: 56.2 µM [inhibitor, partial curve, poor fit]
57 | Cc1cccc(NC(=O)COc2ccc(/C=C(\C#N)C(=O)N3CCOCC3)cc2)c1 | inactive
58 | NC(=O)C1CCN(C(c2ccccc2)c2nnnn2C2CCCC2)CC1 (stereo unspecified) | inactive
59 | CSc1ccc(/C=N/Nc2ccc(Cl)cc2)cc1 | inconclusive: 2.24 µM [inhibitor, full curve, poor fit]
60 | COc1ccc(CCN(C)C(=O)C2CCCN(Cc3ccccc3)C2)cc1OC (stereo unspecified) | inconclusive: 0.501 µM [inhibitor, full curve, poor fit]
61 | CCSc1nnc2c(n1)OC(c1cc(OC)c(OC)c(OC)c1)Nc1ccccc1-2 (stereo unspecified) | inconclusive: 50.1 µM [inhibitor, partial curve, poor fit]
62 | Fc1ccc2c(c1)C1C=CCC1C(c1cc3c(cc1Br)OCO3)N2 (stereo unspecified) | inconclusive: 44.7 µM [inhibitor, partial curve, poor fit]
63 | COC(=O)c1sccc1NC(=O)c1c(C)c(-c2cccc(Cl)c2)nc2ccccc12 | inactive
64 | O=c1c2ccccc2c(-c2ccccc2)nn1-c1cc(N2CCNCC2)ccc1[N+](=O)[O-] | inactive
65 | CC(NC(=O)c1cc(-c2ccco2)nc2ccccc12)C(=O)NCc1ccccc1 (stereo unspecified) | active: 39.8 µM
66 | COc1ccc(S(=O)(=O)NN=C2CCCCC2)cc1 | inconclusive: 112 µM [inhibitor, single point]

— PubChem BioAssay AID1671190 (National Center for Advancing Translational Sciences (NCATS), 2021)
